The exact form of at least one protein or probe is not confirmed. For part of these data: Negatives hold for the conditions tested. For part of these data: Weaker means in comparison with the reference protein, sequence or condition of that experiment. For part of these data: At least one verdict was read from the data and is not stated in words by the source.
What follows are sequences tested on SbcC + SbcD H84S (assay: fluorescence anisotropy). Details: no ATP, 5 mM Mg2+, 1 mM Mn2+; 25 mM Tris pH 7.5, 50 mM KCl, 5 mM MgCl2, 1 mM MnCl2, 1 mM DTT, 1 mM ATP where stated; 5 nM DNA, 2-1000 nM SbcCD, 20 min at 25 C; recombinant protein; protein details: C-terminal His6; label: 5' 6-FAM; letters put together from the description.
“CGCTTTATCAGAAGCCAGACATTAACGCTT (double strand) [30 bp DNA]”: no binding.

Each sequence was assayed on SbcC + SbcD H84Q (assay: fluorescence anisotropy). Details: 1 mM ATP, 5 mM Mg2+, 1 mM Mn2+; 25 mM Tris pH 7.5, 50 mM KCl, 5 mM MgCl2, 1 mM MnCl2, 1 mM DTT, 1 mM ATP where stated; 5 nM DNA, 2-1000 nM SbcCD, 20 min at …; recombinant protein; protein details: C-terminal His6; label: 5' 6-FAM; letters put together from the description.
“CGCTTTATCAGAAGCCAGACATTAACGCTTCTGGAGAAACTCAAC (double strand) [45 bp DNA]”: binds. “CGCTTTATCAGAAGCCAGACATTAACGCTTCTGGA (double strand) [35 bp DNA]”: binds. “CGCTTTATCAGAAGCCAGACATTAACGCTTCTGGAGAAACTCAACGAGCT (double strand) [50 bp DNA]”: binds. “CGCTTTATCAGAAGCCAGAC (double strand) [20 bp DNA]”: binds more weakly. “CGCTTTATCAGAAGCCAGACATTAACGCTTCTGGAGAAAC (double strand) [40 bp DNA]”: binds.

From publication PMC6265447, “The bacterial Mre11–Rad50 homolog SbcCD cleaves opposing strands of DNA by two chemically distinct nuclease reactions” (Nucleic Acids Research, 2018)
